Measured values published in patent US20110020437A1 (APIM THERAPEUTICS, published 2011).
These are yes or no findings as the source states them, for the method shown. Some binding calls cover weakened binding; strength is not graded here.

Amino acid sequences for entries named in this document (tags omitted).
UniProt P12004: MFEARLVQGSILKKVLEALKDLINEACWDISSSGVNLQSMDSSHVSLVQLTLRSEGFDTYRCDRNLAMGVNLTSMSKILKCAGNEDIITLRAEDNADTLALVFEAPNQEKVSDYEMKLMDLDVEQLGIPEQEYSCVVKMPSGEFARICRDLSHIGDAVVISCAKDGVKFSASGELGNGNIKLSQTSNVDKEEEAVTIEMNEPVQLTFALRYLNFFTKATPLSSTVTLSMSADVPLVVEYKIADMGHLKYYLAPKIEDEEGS

Target: T1, proliferating cell nuclear antigen (PCNA) (UniProt P12004 1-261)
T1 construct: Used both for endogenous PCNA of HeLa cell extracts (co-IP, cross-linking) and for the untagged 'PCNA' used as probe in the dot blot; also called endogenous PCNA
Assay: dot blot: peptide spots probed with PCNA

binding: binds
B1: pentapeptide RFLVK (peptide)
peptide: RFLVK
